# Data reported in the supplement of paper PMC3334620.
# Whole data set: some 33,000 sequences, median “E-score (-0.5 to 0.5)” near -0.0034, cut for the highest 2% near 0.25. The list shows a part of the results.
# Molecular target: T1, Yap3 (UniProt P38749)
# T1 sequence: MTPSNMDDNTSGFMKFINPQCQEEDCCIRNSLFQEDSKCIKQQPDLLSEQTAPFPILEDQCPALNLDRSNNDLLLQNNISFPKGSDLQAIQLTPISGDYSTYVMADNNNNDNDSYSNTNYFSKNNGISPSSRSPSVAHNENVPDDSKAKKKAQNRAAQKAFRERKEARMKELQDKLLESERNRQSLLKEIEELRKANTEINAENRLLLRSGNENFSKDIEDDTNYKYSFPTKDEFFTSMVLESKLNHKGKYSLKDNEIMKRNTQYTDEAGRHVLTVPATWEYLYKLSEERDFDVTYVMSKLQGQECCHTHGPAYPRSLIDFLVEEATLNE
# Test: PBM E-score (8-mer binding enrichment) (E-score (-0.5 to 0.5)); higher = stronger / more preferred TF binding
# Conditions: protein concentration: 100 nM; construct: GST-full length
# Summary of the method: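 Full-length yeast transcription factors or their DNA-binding domains, GST-tagged and expressed with PURExpress, were applied at about 100-200 nM to universal all-10-mer Agilent arrays. These arrays had been made double-stranded by primer extension on fresh or once-stripped slides. Detection used fluorescent anti-GST, normalisation used masliner, and E-scores for ungapped eight-base words pooled with reverse complements came from the Universal PBM Analysis Suite.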
row,Sequence,PBM E-score
1,GAGGTTCC,-0.116
2,CTGGGTTA,-0.126
3,CTGAGGTC,-0.227
4,CAAGTGAC,0.0478
5,TGCTTGAA,0.142
6,ACCCGGTA,-0.0141
7,GAACGCCA,-0.0877
8,CATTGTGA,0.145
9,AACGACGG,0.0326
10,ACGGAGGA,-0.0158
11,CCACATTA,0.0768
12,CGCGAGTA,0.161
13,CCTCGGGC,-0.209
14,ATATGCGA,0.154
15,ATCTGCTG,-0.0569
16,GCGAACAC,-0.0514
17,CCTTGCAG,-0.283
18,TAACTCAA,0.0672
19,AGGCGCTC,-0.205
20,GATGACAA,0.264
21,AAACTGTG,0.0327
22,GGCCTCAC,-0.153
23,CTCACCTC,0.0325
24,CTCCCCCA,-0.246
25,CCAGGGGC,-0.383

row,Sequence,PBM E-score
1,TGAATCCA,0.12
2,CTGAACCA,-0.0486
3,CTTTCAGA,0.0118
4,AAGGCTGC,-0.215
5,TGCAGACA,-4e-05
6,AAAAAGTC,0.201
7,AACGACAT,0.202
8,CAACGAGC,-0.147
9,GTCCAAAA,0.0341
10,AATCGTGC,0.205
11,GACCATGA,-0.0328
12,ACCAGACA,-0.146
13,CTAGTCGA,0.0352
14,AGTAGTAT,0.0776
15,GGACGTAC,-0.167
16,AACTTGAT,0.15
17,CGAGTCAG,-0.0965
18,CTATACCA,0.0585
19,CAGCTGAG,-0.07
20,CACTCCAG,-0.00573
21,ACAGCAGC,-0.115
22,AATGCCTA,0.00894
23,CGCCAATA,0.109
24,ACTTACCT,-0.028
25,CGACGGCG,-0.0354

row,Sequence,PBM E-score
1,CTAGGCGC,-0.0349
2,TCATGGGA,0.00531
3,AGTGAGAC,-0.109
4,GAAGTAAA,0.176
5,TAATAATA,0.373
6,CTATACAA,0.189
7,ATTGGTGC,0.0296
8,GCGGCGCA,-0.0776
9,GAACAAGA,0.198
10,GGTCCGGA,-0.0474
11,CGATGTTC,-0.131
12,TAGGCTCA,-0.212
13,CAGCACCA,-0.272
14,GTTCTGAA,0.11
15,CGGAGCGC,-0.234
16,AAATAGCC,-0.0263
17,CAGATCCG,0.0708
18,CTTGGAAC,-0.0665
19,GGCAGCAC,-0.196
20,CACAACTG,-0.0612
21,AAAGATGG,-0.0429
22,GCGTTCTA,0.0793
23,CACGGTAC,-0.277
24,CATTATCC,0.211
25,CCTGCACC,-0.217

# Exported as tab-separated lines: entries from further up.
row	Sequence	PBM E-score
12	CGCGAGTA	0.161
13	CCTCGGGC	-0.209
14	ATATGCGA	0.154
15	ATCTGCTG	-0.0569
16	GCGAACAC	-0.0514
17	CCTTGCAG	-0.283
18	TAACTCAA	0.0672
19	AGGCGCTC	-0.205
20	GATGACAA	0.264
21	AAACTGTG	0.0327
22	GGCCTCAC	-0.153
23	CTCACCTC	0.0325
24	CTCCCCCA	-0.246
25	CCAGGGGC	-0.383
1	TGAATCCA	0.12
2	CTGAACCA	-0.0486
3	CTTTCAGA	0.0118
4	AAGGCTGC	-0.215
5	TGCAGACA	-4e-05
6	AAAAAGTC	0.201
7	AACGACAT	0.202
8	CAACGAGC	-0.147
9	GTCCAAAA	0.0341
10	AATCGTGC	0.205
11	GACCATGA	-0.0328
12	ACCAGACA	-0.146
13	CTAGTCGA	0.0352
14	AGTAGTAT	0.0776
15	GGACGTAC	-0.167
16	AACTTGAT	0.15
17	CGAGTCAG	-0.0965
18	CTATACCA	0.0585
19	CAGCTGAG	-0.07
20	CACTCCAG	-0.00573
21	ACAGCAGC	-0.115
22	AATGCCTA	0.00894
23	CGCCAATA	0.109
24	ACTTACCT	-0.028
25	CGACGGCG	-0.0354
1	CTAGGCGC	-0.0349
2	TCATGGGA	0.00531
3	AGTGAGAC	-0.109
4	GAAGTAAA	0.176
5	TAATAATA	0.373
6	CTATACAA	0.189
7	ATTGGTGC	0.0296
8	GCGGCGCA	-0.0776
9	GAACAAGA	0.198
10	GGTCCGGA	-0.0474
11	CGATGTTC	-0.131
12	TAGGCTCA	-0.212
13	CAGCACCA	-0.272
14	GTTCTGAA	0.11
15	CGGAGCGC	-0.234
16	AAATAGCC	-0.0263
17	CAGATCCG	0.0708
18	CTTGGAAC	-0.0665
19	GGCAGCAC	-0.196
20	CACAACTG	-0.0612
21	AAAGATGG	-0.0429
22	GCGTTCTA	0.0793

# Remaining list, next part.

row,Sequence,PBM E-score
1,GAGCATGA,0.0306
2,GAAGTATA,0.143
3,GAGGAGCA,-0.106
4,CGGGCGTA,-0.142
5,CGGTCTAA,-0.0495
6,TCTTGACA,0.0157
7,ACTAAGTG,-0.00977
8,GCAAAGCC,-0.245
9,AAAACTAG,0.021
10,CCAGAACA,-0.0243
11,ATCGTTTC,0.0597
12,AACCTGGT,-0.0153
13,ACACCCCT,-0.222
14,ACCAGGAA,0.0629
15,ACTAGCCT,0.0133
16,CAGCTCAC,-0.155
17,CTTTGTCC,-0.0016
18,CAATCTGA,-0.0797
19,CCCGCCCA,-0.041
20,ACCAACAG,-0.102
21,ACCCCGCC,-0.135
22,CCGATCGG,-0.0203
23,AATCCGCC,-0.123
24,AAATGCTT,-0.018
25,CTCCATGC,-0.144

row,Sequence,PBM E-score
1,GTTCGGAA,0.19
2,GGCTAGGA,-0.191
3,CCCCTTCA,-0.209
4,ACGTTAGT,0.174
5,ATCCAGAT,-0.127
6,TCAGCACA,0.0431
7,ACGGATGA,0.035
8,GGCAGACC,-0.334
9,AGTGGCGC,0.0259
10,GCGTACCA,-0.0868
11,CGTCAGAA,-0.204
12,CTCTTTCA,0.0223
13,ACCTTCGT,-0.00074
14,AGGGTGTG,-0.104
15,GAGTCGGC,-0.14
16,CAAACGTG,0.0249
17,AACGTCGA,0.103
18,GGCCGGAA,-0.139
19,TAGCATAA,0.0399
20,CACAATAG,-0.0306
21,ACGGTAGC,-0.0543
22,CTCGCTTC,-0.0534
23,CTACAACC,0.00147
24,GGCGCAGA,-0.045
25,ACATATGG,0.134

row,Sequence,PBM E-score
1,ATCCCCCA,-0.24
2,AATTTGGC,-0.0745
3,ACGAGCGC,-0.199
4,ATGTGATA,0.255
5,AATTACGT,0.308
6,GCCTAAGC,-0.152
7,ACTGGAAG,-0.11
8,GAACGCCC,-0.0783
9,AGACGGAC,-0.0788
10,GACCGTAA,-0.00788
11,AAGACGGG,-0.0765
12,TAGGACTA,0.00582
13,AAATCTTG,0.0608
14,CAGCAGTA,-0.0879
15,GCATTACC,-0.131
16,CAGCTCTC,-0.305
17,ATTGAGGG,-0.141
18,AGGGTTTA,0.0289
19,TCTTTAAA,0.0906
20,CAGGTTAG,-0.0433
21,CTTCGTTA,-0.0671
22,ATATCTAG,0.115
23,CCGCTCCC,-0.327
24,AGACTCAC,-0.162
25,ATAAGTAT,0.023

row,Sequence,PBM E-score
1,CGCGTAAG,0.158
2,CGACACCA,-0.0506
3,ATTCGCCG,0.14
4,CAGCGCCA,-0.196
5,CAATTATC,0.273
6,GTAGCGAA,0.0429
7,ACTTCTAG,-0.233
8,AAACATAG,-0.0382
9,ATTCCAAA,0.0683
10,CGCACTCA,0.0343
11,CGATAGAG,-0.035
12,TGACCACA,0.0871
13,GGCCGGCA,-0.0643
14,AGCCGTAG,-0.0413
15,ATTGGGGG,-0.132
16,GCCAGTAA,-0.206
17,ACATGTTC,0.0569
18,ACAATAGA,-0.00187
19,AAGTGCGG,-0.0626
20,CCATTGTC,0.0818
21,CCTATCGA,0.0765
22,CGGCCGCC,-0.161
23,AATTGTGC,0.117
24,ACTTTATG,0.124
25,CGTCTAGA,-0.191

row,Sequence,PBM E-score
1,GCGTACGA,-0.0219
2,TAATAGGA,0.15
3,CGTGCTCA,-0.0686
4,CCACGACG,-0.0372
5,GATGCCAA,-0.0809
6,CGTCAGGC,-0.0794
7,GAGGCCGA,-0.115
8,CTCCCACC,-0.213
9,ATAGGCAG,0.027
10,CGTACTTC,0.179
11,ACATATCG,0.0873
12,TACCCGAA,0.11
13,CGCACCTA,-0.246
14,ACAACAGA,-0.0683
15,GAGGTTCA,0.0805
16,AACCCCCA,-0.371
17,TGAGAAAA,0.1
18,GCACTGCC,-0.0495
19,CATTTCTC,0.126
20,ATGTGGTG,0.074
21,CGTTATAG,0.163
22,GCGGCTCA,0.0715
23,AAACCGAT,-0.0405
24,CAGCGGCC,-0.203
25,CGTGCTTC,0.187

row,Sequence,PBM E-score
1,CGTTAAAG,0.121
2,CCACGTAG,-0.183
3,AAACTATG,-0.0381
4,ACGTTAAA,0.212
5,CCCTGCGC,-0.131
6,ACTGATTA,0.196
7,TCGTGTCA,-0.0021
8,GAGACTGC,-0.232
9,AAGGGGCG,-0.27
10,AAGACCAA,0.0068
11,GCGCTTCA,0.0121
12,GCGCGTCC,-0.0559
13,CCTAGCCG,-0.0626
14,CTAAAAAC,-0.0937
15,AGCCCAGA,-0.0938
16,ATCACCCC,0.0232
17,AACTTATC,0.154
18,CTGTACAG,-0.159
19,AGGATCCT,-0.14
